The exact form of at least one protein or probe is not confirmed. Weaker means in comparison with the reference protein, sequence or condition of that experiment. Where a protein sequence is shown, tags need not be part of it.

This is an account of results in paper PMC4850456, “Phenylbutazone induces expression of MBNL1 and suppresses formation of MBNL1-CUG RNA foci in a mouse model of myotonic dystrophy”.

This series has as its target T1, GST-MBNL1 (1-260) (UniProt Q9NR56).
T1 sequence (looked up): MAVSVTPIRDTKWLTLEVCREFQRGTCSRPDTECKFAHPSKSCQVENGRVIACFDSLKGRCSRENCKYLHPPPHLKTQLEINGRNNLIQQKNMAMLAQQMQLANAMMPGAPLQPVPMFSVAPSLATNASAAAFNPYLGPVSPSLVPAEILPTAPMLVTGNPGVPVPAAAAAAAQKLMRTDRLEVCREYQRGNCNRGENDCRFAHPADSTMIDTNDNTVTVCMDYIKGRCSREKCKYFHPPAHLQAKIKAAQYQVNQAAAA
Put plainly: EMSA. As to conditions: phenylbutazone added after complex formation, dose-dependent decrease of complex; 10 mM Tris-HCl pH 7.5, 50 mM KCl, 1 mM DTT, room temperature 30 min, 20 ul; 6 ug protein, RNA 2.5 pmol/ul; then PBZ 15 min at room temperature; recombinant protein; residues 1-260; label: 5'-biotin.

Consider “GCCUGCUGCUGCUGCUGCUGCUGCUGCUGCUGGC [CUG repeat RNA probe]”, for which the binding result was “binds more weakly”.
